# Reference: patent US8822440B2, “Inhibiting cyclin D polypeptides” (Mayo Foundation for Medical Education and Research, priority 2006, dated 2014)
# At least one structure is not confirmed: it was looked up by name or label, or the drawing left a doubt.
# Tested on: CCND2 promoter
# Assay: CCND2 promoter-luciferase transactivation assay in NIH3T3 cells with or without c-maf
# Type: cell-based, mouse
# Conditions: NIH3T3 reporter cells, 5 μM, 16 hours
# Protocol: Using this assay, Lopac (n=1280), Prestwick (n=1120), and Spectrum (n=2000) libraries of drugs and natural compounds were screened. In a parallel MTS assay, the effect of each compound on 3T3 viability was determined, allowing exclusion of compounds that caused secondary suppression of CCND2 due to non-specific cytotoxicity. […] These included monensin, patulin, β-lapachone, camptothecin, dihydrogambogic acid, gentian violet, thapsigargin, brefeldin A, pristimerin, and kinetin riboside.
# Full-length c-maf cDNA was subcloned into an IRES-GFP MIEV retroviral vector and introduced into NIH3T3 cells by infection. Stable clones expressing GFP and c-maf were selected by flow cytometry and immunoblotting, respectively. […]
# Luciferase assay. Luciferase activity was assessed according to the manufacturer's instructions (Promega, Madison, Wis.). […] After a 10-minute incubation, an equal volume of Bright-Glo Luciferase substrate (Promega) was added, and luminescence signal was detected with a 96-well Luminoskan luminescence plate reader (Thermo Labsystem, Waltham, Mass.) using a 5 second integration. […]
smiles,measurement,value
C=C[C@@]1(C)CC(=O)[C@]2(O)[C@@]3(C)[C@@H](O)CCC(C)(C)[C@@H]3[C@H](O)[C@H](OC(C)=O)[C@@]2(C)O1 [Forskolin],"effect on CCND2-luc expression, agent alone",marked transactivation
